Source: the supplement of paper PMC3334620
The full ranking holds about 33,000 sequences; the median of “E-score (-0.5 to 0.5)” is about -0.016, and the highest 2% start at about 0.3. This is one part of the list.

Target: T1, Yer184c (UniProt P39961)
T1 sequence: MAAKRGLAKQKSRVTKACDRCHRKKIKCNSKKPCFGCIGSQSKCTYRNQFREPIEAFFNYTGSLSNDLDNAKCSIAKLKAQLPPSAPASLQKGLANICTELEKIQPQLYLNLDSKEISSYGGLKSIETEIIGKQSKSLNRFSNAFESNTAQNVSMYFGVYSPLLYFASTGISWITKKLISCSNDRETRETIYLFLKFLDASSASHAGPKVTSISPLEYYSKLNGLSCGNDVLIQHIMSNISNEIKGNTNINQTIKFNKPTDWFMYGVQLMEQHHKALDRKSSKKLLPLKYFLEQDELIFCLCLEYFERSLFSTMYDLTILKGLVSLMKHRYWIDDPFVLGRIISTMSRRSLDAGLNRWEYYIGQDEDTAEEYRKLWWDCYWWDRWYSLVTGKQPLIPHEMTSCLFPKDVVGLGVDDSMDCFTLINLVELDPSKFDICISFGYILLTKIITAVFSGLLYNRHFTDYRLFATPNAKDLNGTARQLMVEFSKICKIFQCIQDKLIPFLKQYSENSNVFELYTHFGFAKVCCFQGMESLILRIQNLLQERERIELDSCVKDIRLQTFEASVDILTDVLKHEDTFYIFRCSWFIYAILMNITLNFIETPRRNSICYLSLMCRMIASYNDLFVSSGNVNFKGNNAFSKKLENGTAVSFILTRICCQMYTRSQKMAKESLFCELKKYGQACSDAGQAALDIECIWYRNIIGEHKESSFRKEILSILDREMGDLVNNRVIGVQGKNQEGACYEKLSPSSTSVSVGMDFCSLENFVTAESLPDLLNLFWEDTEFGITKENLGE
Assay: PBM E-score (8-mer binding enrichment) (E-score (-0.5 to 0.5)); higher = stronger / more preferred TF binding
Conditions: protein concentration: 100 nM; construct: GST-full length
Description: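 Universal 'all 10-mer' protein binding microarrays (Agilent AMADID 015681) probed with GST-tagged S. cerevisiae TFs (full-length or DBD) made by in vitro transcription/translation (PURExpress), about 100-200 nM. Bound TF was detected with fluorescent anti-GST. Each ungapped 8-mer (which stands for itself and its reverse complement) is scored by the PBM enrichment score (E-score), a modified Wilcoxon-Mann-Whitney statistic from -0.5 to +0.5, computed with the Universal PBM Analysis Suite. Scale: above 0.35 generally sequence-specific binding.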

Compared with AAGGTTTA, GCAAAGGA is higher in “PBM E-score” value: -0.147 for the first, 0.0463 for the second.

Compared with ACATACCC, ATCAACTA is higher in “PBM E-score” value: -0.0199 for the first, 0.178 for the second.

Going from GAATTGCC to ATATTCCC, the “PBM E-score” value rises from 0.108 to 0.176.

Going from AAAGCAGA to GACCAACC, the “PBM E-score” value falls from -0.0147 to -0.211.

Compared with CAAGAGGA, AAGGGTCA is lower in “PBM E-score” value: -0.0179 for the first, -0.204 for the second.

Going from ATCTTCTA to ACGGAAGC, the “PBM E-score” value rises from 0.0751 to 0.274.

First: CACCCTGC
Second: GCATTCCC
The “PBM E-score” value of the first is higher: -0.179 for the first, -0.182 for the second.

Compared with TACCTCAA, GGGAGCTA is lower in “PBM E-score” value: -0.122 for the first, -0.172 for the second.

Going from CGTACGCC to CTCGTGGA, the “PBM E-score” value rises from -0.0929 to 0.0295.

Compared with GAGCGTGA, ATAAGGCA is lower in “PBM E-score” value: -0.0778 for the first, -0.123 for the second.

Going from ATGAGTTG to GAAAGCCA, the “PBM E-score” value falls from 0.0868 to -0.19.

First: AAAAATTA
Second: CTGTCACA
The “PBM E-score” value of the first is higher: 0.253 for the first, -0.146 for the second.

Going from ATGCGTGC to GAATGTCC, the “PBM E-score” value rises from 0.0442 to 0.0884.

Going from AAGGATCA to ATGAAGAC, the “PBM E-score” value rises from -0.0829 to 0.0825.

First: TAGCTGGA
Second: AACTTTAA
The “PBM E-score” value of the first is lower: -0.265 for the first, 0.262 for the second.

First: TGCAAACA
Second: ACTAGGCG
The “PBM E-score” value of the first is lower: -0.168 for the first, -0.00043 for the second.

First: CGAATCGA
Second: CGTTGCTC
The “PBM E-score” value of the first is higher: 0.22 for the first, -0.0485 for the second.

Going from ATCCCGCG to GTTGTAGA, the “PBM E-score” value falls from 0.285 to 0.191.

Going from ACGATACC to CGTGTCTC, the “PBM E-score” value falls from 0.0646 to -0.152.

Compared with AAGCAGAT, CGTACACA is lower in “PBM E-score” value: 0.0686 for the first, 0.028 for the second.

Going from TGCGATAA to ATGTCACC, the “PBM E-score” value falls from 0.108 to 0.0717.

Going from ATGTAGAA to AAATCGCC, the “PBM E-score” value rises from -0.0706 to 0.0957.

First: CAATCAAG
Second: CACAGTTA
The “PBM E-score” value of the first is lower: -0.0394 for the first, 0.0151 for the second.

Going from CGAAAAGA to AACGTGGC, the “PBM E-score” value falls from 0.294 to -0.0733.

First: ACTCGGGA
Second: CGATCCGC
The “PBM E-score” value of the first is higher: 0.199 for the first, 0.113 for the second.

Going from AGTATTAC to CGGTAAAA, the “PBM E-score” value rises from 0.121 to 0.305.

First: GACCTGCC
Second: CACTAACG
The “PBM E-score” value of the first is higher: -0.157 for the first, -0.188 for the second.

Compared with CCTTCCTC, GAATATTC is higher in “PBM E-score” value: -0.149 for the first, 0.258 for the second.

Going from GCGTGACC to AAGCCCAA, the “PBM E-score” value rises from -0.11 to -0.106.

First: CACAGAGA
Second: CAATCTAG
The “PBM E-score” value of the first is lower: -0.113 for the first, 0.0865 for the second.

First: CAACCGGA
Second: TGAGCTCA
The “PBM E-score” value of the first is higher: 0.373 for the first, 0.189 for the second.

First: CACATGTG
Second: CATCAACA
The “PBM E-score” value of the first is lower: -0.323 for the first, 0.0974 for the second.

Compared with AATGTCCG, AGACTGGA is lower in “PBM E-score” value: 0.283 for the first, -0.118 for the second.

First: CCCTCAGG
Second: ATGATGTC
The “PBM E-score” value of the first is lower: -0.239 for the first, 0.088 for the second.

Compared with ACTGAAAT, AGTTACTG is lower in “PBM E-score” value: 0.119 for the first, 0.00807 for the second.

Going from AGAAATGG to CCTGGCTA, the “PBM E-score” value falls from -0.138 to -0.244.

First: CACAAGGC
Second: CAGGAGTC
The “PBM E-score” value of the first is lower: -0.303 for the first, -0.148 for the second.

First: GGCTAATA
Second: AGAAAGGG
The “PBM E-score” value of the first is higher: 0.0926 for the first, -0.00464 for the second.

Compared with CAAGCGCG, AGGAGGTG is lower in “PBM E-score” value: -0.0813 for the first, -0.237 for the second.

Going from CGAGATCC to ACAAGCTG, the “PBM E-score” value falls from 0.0773 to 0.0583.

First: CACCTAAA
Second: AAGCAGTA
The “PBM E-score” value of the first is higher: 0.0424 for the first, -0.209 for the second.

First: GCGTAGCC
Second: CATGGTCA
The “PBM E-score” value of the first is lower: -0.215 for the first, -0.00543 for the second.

Compared with ATCGAGAA, AGTCACGG is higher in “PBM E-score” value: 0.0896 for the first, 0.176 for the second.

First: AGGCGCAT
Second: CTAATTCC
The “PBM E-score” value of the first is lower: -0.0726 for the first, 0.216 for the second.

First: CACACGCC
Second: GTCTTCTA
The “PBM E-score” value of the first is lower: -0.0346 for the first, 0.0141 for the second.

Going from CGCTTTGC to ACGTCCCG, the “PBM E-score” value falls from 0.128 to -0.0216.

Compared with GATAGGCC, GATTACCC is higher in “PBM E-score” value: -0.147 for the first, 0.12 for the second.

Going from CAAAATCG to CCTAAGGC, the “PBM E-score” value falls from 0.0713 to -0.241.

Compared with GACCCGAA, CAATCATG is lower in “PBM E-score” value: 0.127 for the first, -0.0132 for the second.

Going from ACCATGCA to GATTCGCA, the “PBM E-score” value rises from -0.0738 to 0.131.

First: GCGAGACA
Second: CAATCATC
The “PBM E-score” value of the first is lower: -0.188 for the first, -0.0321 for the second.

First: AGTTCTGG
Second: ACCGCCAT
The “PBM E-score” value of the first is higher: -0.0406 for the first, -0.187 for the second.

Compared with AAGCCCAC, CTTCGCCA is higher in “PBM E-score” value: -0.139 for the first, -0.116 for the second.

Compared with ACAATGGC, GTACTGAA is higher in “PBM E-score” value: -0.106 for the first, 0.223 for the second.

Going from CTGGCCGA to ACGCGTCC, the “PBM E-score” value falls from 0.129 to 0.028.

Going from AGCATTTA to CTGGCAGC, the “PBM E-score” value falls from 0.0356 to -0.174.

Going from CGGATCCC to AGACTTGC, the “PBM E-score” value falls from 0.171 to -0.146.

Going from AGCACCGC to AGCTGAAG, the “PBM E-score” value rises from -0.26 to 0.0187.

First: TCATTCAA
Second: GGAGTGAA
The “PBM E-score” value of the first is higher: 0.162 for the first, -0.0205 for the second.

Going from GTGTCGGA to TAGAAGCA, the “PBM E-score” value falls from 0.132 to 0.0361.

First: AGGTGTTG
Second: ACCGCACC
The “PBM E-score” value of the first is lower: -0.186 for the first, 7e-05 for the second.

Compared with AACCATAA, CCCAAACC is higher in “PBM E-score” value: -0.0372 for the first, 0.00882 for the second.

Compared with CAATAATA, AAGTGGAA is lower in “PBM E-score” value: 0.229 for the first, 0.00951 for the second.

Compared with CAGCCTTA, CGAACCTC is higher in “PBM E-score” value: -0.0157 for the first, 0.0484 for the second.

Going from AACGGTGC to ACTGGGCC, the “PBM E-score” value falls from 0.0104 to 0.00476.

First: GGGACCTA
Second: CGCACACG
The “PBM E-score” value of the first is lower: -0.0677 for the first, -0.0376 for the second.

First: AGAGTCTA
Second: ATTTAAAA
The “PBM E-score” value of the first is lower: -0.168 for the first, 0.189 for the second.

Going from GTCAAGAA to ATTGTGAC, the “PBM E-score” value falls from 0.0525 to -0.0637.

Going from CTGAGGGA to GCAGTTTA, the “PBM E-score” value rises from -0.138 to -0.0641.

Going from GTACGCAA to CCCGGCAC, the “PBM E-score” value rises from -0.067 to 0.0863.

Compared with CCCAAGTA, CTAGCAGA is higher in “PBM E-score” value: -0.184 for the first, -0.00329 for the second.

Compared with AATCAAGG, GGCATCAC is lower in “PBM E-score” value: 0.00846 for the first, -0.113 for the second.

Going from GGTATCAC to GTACAGCA, the “PBM E-score” value rises from -0.105 to -0.00641.

Compared with ATACACAT, ACAGATAC is higher in “PBM E-score” value: 0.0238 for the first, 0.132 for the second.

First: AGGTTTTC
Second: AGCCTAGG
The “PBM E-score” value of the first is higher: 0.0522 for the first, -0.143 for the second.

Compared with ACCTTAAA, AATTCGGT is higher in “PBM E-score” value: 0.0181 for the first, 0.301 for the second.

Going from GTCACCTA to GTCAGTCA, the “PBM E-score” value rises from -0.292 to -0.0772.

Compared with CTGTATAC, ACTTAATC is higher in “PBM E-score” value: 0.119 for the first, 0.125 for the second.

Going from ACGATTGC to AAAGCGAC, the “PBM E-score” value falls from 0.116 to 0.0442.

Compared with GGGAATAA, ATAAAAAG is higher in “PBM E-score” value: 0.125 for the first, 0.205 for the second.

Compared with CCATCGCC, CACGGTGC is higher in “PBM E-score” value: -0.018 for the first, 0.0187 for the second.

Compared with ACGACCCG, ACGGGGGA is lower in “PBM E-score” value: 0.0884 for the first, -0.252 for the second.

First: CCTATACA
Second: CGTCCCCA
The “PBM E-score” value of the first is higher: -0.0663 for the first, -0.276 for the second.

Compared with GGATTTGA, CTCTGCAC is lower in “PBM E-score” value: 0.0506 for the first, -0.192 for the second.

First: AATACGCC
Second: AAAGCACT
The “PBM E-score” value of the first is higher: 0.0638 for the first, -0.0205 for the second.

Compared with CCGCTATC, GACGGTTA is lower in “PBM E-score” value: -0.0075 for the first, -0.145 for the second.
